Results reported in PubChem BioAssay AID264 (DTP/NCI, 2004).
The list does not hold the whole screen: it is rich in T/C values a quarter to a half above the control, in often repeated tests (any T/C) and in doses without a T/C. Further doses and runs are listed elsewhere. T/C is the treated group as % of the vehicle group. Schedule codes are those of the source, taken here to give the interval after Q, in days (D) or hours (H), and the number of doses after X. Some T/C values carry the count of animals alive at the toxicity check (mostly the fifth day); where none is given, no animal had died by that day. Some entries give survivors of the animals treated and no T/C: the source files T/C as zero there, which appears to mark a toxic dose or a test without result, not a measured value. Counts of survivors are from the toxicity check (mostly the fifth day) where no day follows; animals may have died later. Some entries were tested several times; the results are listed from low to high. Bridge positions count the residues as written; N and C are the ends. Square brackets hold non-standard residues; d marks the D form. Peptide text beside a SMILES is read from it. I, II: the chains in the order shown. * marks the point of attachment. Quinoxaline2carbonyl = O=C(c1cnc2ccccc2n1)*; NMeV = CN[CH](C(=O)O)C(C)C; NMeC = CN[CH](CS)C(=O)O

Tested on: nude mice, LX-1 lung xenograft intrarenal, tumor weight T/C
Test: NCI In Vivo Anticancer Drug Screen. Data for tumor model Human Lung LX-1 Xenograft (intrarenal inoculation) in NU/NU Swiss (nude) mice
Conditions: T/C endpoint: mean tumor weight change, higher T/C = larger tumour; for T/C: evaluated on day 11
Outline: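 Tumor-bearing mice receive test compound or vehicle; tumor size is then measured in each group. The treated value is divided by the vehicle value to give T/C.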

[1] = dose: 200.0 mg/kg/injection, schedule: Q04DX003 (sc), vehicle: saline with Tween-80
[2] = dose: 30.0 mg/kg/injection, schedule: Q04DX003 (sc), vehicle: Klucel (hydroxypropylcellulose) (HPC)
[3] = dose: 50.0 mg/kg/injection, schedule: Q01DX010 (sc), vehicle: saline
[4] = dose: 1600.0 mg/kg/injection, schedule: Q04DX003 (sc), vehicle: saline with Tween-80

## NCCc1ccc(O)c(O)c1
dose: 1600.0 mg/kg/injection, schedule: Q01DX010 (sc), vehicle: saline
  survivor count: 0 of 3 on day 11

## C=C1N(C)c2ccccc2C1(C)C
[1]
  survivor count: 1 of 6 on day 11
dose: 400.0 mg/kg/injection, schedule: Q04DX003 (sc), vehicle: saline with Tween-80
  survivor count: 0 of 6 on day 11

## CCN(CC)c1ccc2cc(-c3nc4ccccc4n3C)c(=O)oc2c1
dose: 300.0 mg/kg/injection, schedule: Q04DX003 (sc), vehicle: Klucel (hydroxypropylcellulose) (HPC)
  T/C: 144 % of control [4 of 6 alive on day 11]
dose: 600.0 mg/kg/injection, schedule: Q04DX003 (sc), vehicle: Klucel (hydroxypropylcellulose) (HPC)
  survivor count: 1 of 6 on day 11

## COC1OC(CO)C(O)C(NC(=O)N(C)N=O)C1O (stereo not drawn)
dose: 1800.0 mg/kg/injection, schedule: Q04DX003 (sc), vehicle: saline
  survivor count: 0 of 6 on day 11 and 3 of 6 on day 11

## C=C1C(C)C2C(Cc3ccccc3)NC(=O)C23C(OC(C)=O)C=CC(C)(O)C(=O)C(C)C/C=C/C3C1O (stereo not drawn)
[2]
  survivor count: 3 of 6 on day 11
dose: 60.0 mg/kg/injection, schedule: Q04DX003 (sc), vehicle: Klucel (hydroxypropylcellulose) (HPC)
  survivor count: 3 of 6 on day 11

## CC1(C)OC(=O)N(CO)C1=O
[3]
  T/C: 134 % of control

## C=C(C)[C@H]1CN[C@H](C(=O)O)[C@H]1CC(=O)O
dose: 40.0 mg/kg/injection, schedule: Q04DX003 (sc), vehicle: saline
  survivor count: 3 of 6 on day 11
dose: 80.0 mg/kg/injection, schedule: Q04DX003 (sc), vehicle: saline
  survivor count: 0 of 6 on day 11

## C[n+]1c2cc(N)ccc2cc2ccc(N)cc21
dose: 12.5 mg/kg/injection, schedule: Q01DX010 (sc), vehicle: saline
  survivor count: 0 of 3 on day 11
dose: 25.0 mg/kg/injection, schedule: Q01DX010 (sc), vehicle: saline
  survivor count: 0 of 3 on day 11
[3]
  survivor count: 0 of 3 on day 11

## CCC1OCC(C(Cl)CCl)O1 (stereo not drawn)
dose: 2400.0 mg/kg/injection, schedule: Q04DX003 (sc), vehicle: Klucel (hydroxypropylcellulose) (HPC)
  survivor count: 0 of 6 on day 11

## CC(=O)Oc1ccc[nH]c1=O
[1]
  T/C: 125 % of control
[4]
  survivor count: 3 of 6 on day 11

## CCCCN(CCCC)C(Cl)=Nc1ccccc1
dose: 50.0 mg/kg/injection, schedule: Q04DX003 (sc), vehicle: other
  T/C: 134 % of control
dose: 100.0 mg/kg/injection, schedule: Q04DX003 (sc), vehicle: other
  T/C: 125 % of control
dose: 200.0 mg/kg/injection, schedule: Q04DX003 (sc), vehicle: other
  T/C: 142 % of control
dose: 300.0 mg/kg/injection, schedule: Q04DX003 (sc), vehicle: saline with Tween-80
  survivor count: 1 of 3 on day 11
dose: 600.0 mg/kg/injection, schedule: Q04DX003 (sc), vehicle: saline with Tween-80
  survivor count: 0 of 3 on day 11
dose: 1200.0 mg/kg/injection, schedule: Q04DX003 (sc), vehicle: saline with Tween-80
  survivor count: 0 of 3 on day 11

## COc1cccc2c1C(=O)c1c(O)c3c(c(O)c1C2=O)CC(O)(C(=O)CO)CC3OC1CC(N)C(O)C(C)O1 (stereo not drawn)
dose: 96.0 mg/kg/injection, schedule: Q01DX010 (sc), vehicle: saline
  survivor count: 1 of 3 on day 11

## CN(Cc1cnc2nc(N)nc(N)c2n1)c1c(Cl)cc(C(=O)NC(CCC(=O)O)C(=O)O)cc1Cl (stereo not drawn)
dose: 100.0 mg/kg/injection, schedule: Q01DX010 (sc), vehicle: Klucel (hydroxypropylcellulose) (HPC)
  survivor count: 0 of 3 on day 11

## Clc1ccc2nnnn2n1
dose: 800.0 mg/kg/injection, schedule: Q04DX003 (sc), vehicle: saline with Tween-80
  survivor count: 1 of 6 on day 11
[4]
  survivor count: 0 of 6 on day 11

## Cn1cnc([N+](=O)[O-])c1Sc1ncn[nH]1
dose: 800.0 mg/kg/injection, schedule: Q04DX003 (sc), vehicle: suspension in saline
  survivor count: 0 of 6 on day 11

## CC1NC(=O)C(NC(=O)c2cnc3ccccc3n2)COC(=O)C(C(C)C)N(C)C(=O)C2CSSCC(C(=O)N(C)C(C(C)C)C(=O)OCC(NC(=O)c3cnc4ccccc4n3)C(=O)NC(C)C(=O)N2C)N(C)C1=O (stereo not drawn) (I: Quinoxaline2carbonyl-SA[NMeC][NMeV] / II: Quinoxaline2carbonyl-SA[NMeC][NMeV]; ester I:1-II:C, I:C-II:1; disulfide I:3-II:3; configuration not given here)
dose: 800.0 micrograms/kg/injection, schedule: Q04DX003 (sc), vehicle: Klucel (hydroxypropylcellulose) (HPC)
  survivor count: 3 of 6 on day 11

## C/C(=C\c1ccccc1)[N+](=O)[O-]
dose: 400.0 mg/kg/injection, schedule: Q01DX010 (sc), vehicle: Klucel (hydroxypropylcellulose) (HPC)
  survivor count: 1 of 3 on day 11

## C=C1C(=O)C2=CC1CCC(=O)C1(C)CCC(OC(C)=O)C(C)(C)C1CC2O (stereo not drawn)
[2]
  T/C: 144 % of control
dose: 240.0 mg/kg/injection, schedule: Q04DX003 (sc), vehicle: Klucel (hydroxypropylcellulose) (HPC)
  survivor count: 0 of 6 on day 11

## c1ccc([C@H]2CN3CCSC3=N2)cc1
dose: 120.0 mg/kg/injection, schedule: Q04DX003 (sc), vehicle: saline
  survivor count: 0 of 6 on day 11
dose: 240.0 mg/kg/injection, schedule: Q04DX003 (sc), vehicle: saline
  survivor count: 0 of 6 on day 11

## CS(=O)(=O)CS(=O)(=O)OCCCl
dose: 300.0 mg/kg/injection, schedule: Q04DX003 (sc), vehicle: suspension in saline
  survivor count: 3 of 6 on day 11
dose: 600.0 mg/kg/injection, schedule: Q04DX003 (sc), vehicle: suspension in saline
  survivor count: 1 of 6 on day 11
dose: 1200.0 mg/kg/injection, schedule: Q04DX003 (sc), vehicle: suspension in saline
  survivor count: 0 of 6 on day 11

## COC(=O)C(F)C(Br)C(=O)OC (stereo not drawn)
dose: 150.0 mg/kg/injection, schedule: Q04DX003 (sc), vehicle: saline with Tween-80
  survivor count: 2 of 6 on day 11

## C1CCC2OCCOCCOC3CCCCC3OCCOCCOC2C1 (stereo not drawn)
dose: 37.5 mg/kg/injection, schedule: Q04DX003 (sc), vehicle: Klucel (hydroxypropylcellulose) (HPC)
  T/C: 138 % of control [4 of 6 alive on day 11]
dose: 75.0 mg/kg/injection, schedule: Q04DX003 (sc), vehicle: Klucel (hydroxypropylcellulose) (HPC)
  survivor count: 0 of 6 on day 11

## NC(C/[N+]([O-])=N/O)C(=O)O (stereo not drawn)
dose: 100.0 mg/kg/injection, schedule: Q01DX010 (sc), vehicle: saline
  T/C: 138 % of control
dose: 200.0 mg/kg/injection, schedule: Q01DX010 (sc), vehicle: saline
  survivor count: 1 of 3 on day 11
dose: 400.0 mg/kg/injection, schedule: Q01DX010 (sc), vehicle: saline
  survivor count: 0 of 3 on day 11
